Source: paper PMC13239758
No constants are given. Whether binding was seen depends on the method and setting. For some assays here: In cells and extracts the contact can be indirect. Some entries that bind do so weakly or less than the wild type. For some assays here: Where a sequence is shown, tags or fusion partners need not be part of it. Values belong to the binder of their own block, whether it stands above or below them.

Sequences of proteins named here, by UniProt entry; tags and fusion partners are left off.
UniProt Q9ES74: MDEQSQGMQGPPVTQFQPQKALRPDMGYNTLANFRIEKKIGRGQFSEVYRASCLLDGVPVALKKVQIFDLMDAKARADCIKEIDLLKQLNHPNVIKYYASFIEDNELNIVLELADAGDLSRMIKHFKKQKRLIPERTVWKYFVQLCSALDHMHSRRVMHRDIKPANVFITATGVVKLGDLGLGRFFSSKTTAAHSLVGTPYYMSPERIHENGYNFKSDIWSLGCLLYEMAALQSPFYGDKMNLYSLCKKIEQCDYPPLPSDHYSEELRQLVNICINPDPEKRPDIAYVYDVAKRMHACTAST
UniProt Q9QVP9: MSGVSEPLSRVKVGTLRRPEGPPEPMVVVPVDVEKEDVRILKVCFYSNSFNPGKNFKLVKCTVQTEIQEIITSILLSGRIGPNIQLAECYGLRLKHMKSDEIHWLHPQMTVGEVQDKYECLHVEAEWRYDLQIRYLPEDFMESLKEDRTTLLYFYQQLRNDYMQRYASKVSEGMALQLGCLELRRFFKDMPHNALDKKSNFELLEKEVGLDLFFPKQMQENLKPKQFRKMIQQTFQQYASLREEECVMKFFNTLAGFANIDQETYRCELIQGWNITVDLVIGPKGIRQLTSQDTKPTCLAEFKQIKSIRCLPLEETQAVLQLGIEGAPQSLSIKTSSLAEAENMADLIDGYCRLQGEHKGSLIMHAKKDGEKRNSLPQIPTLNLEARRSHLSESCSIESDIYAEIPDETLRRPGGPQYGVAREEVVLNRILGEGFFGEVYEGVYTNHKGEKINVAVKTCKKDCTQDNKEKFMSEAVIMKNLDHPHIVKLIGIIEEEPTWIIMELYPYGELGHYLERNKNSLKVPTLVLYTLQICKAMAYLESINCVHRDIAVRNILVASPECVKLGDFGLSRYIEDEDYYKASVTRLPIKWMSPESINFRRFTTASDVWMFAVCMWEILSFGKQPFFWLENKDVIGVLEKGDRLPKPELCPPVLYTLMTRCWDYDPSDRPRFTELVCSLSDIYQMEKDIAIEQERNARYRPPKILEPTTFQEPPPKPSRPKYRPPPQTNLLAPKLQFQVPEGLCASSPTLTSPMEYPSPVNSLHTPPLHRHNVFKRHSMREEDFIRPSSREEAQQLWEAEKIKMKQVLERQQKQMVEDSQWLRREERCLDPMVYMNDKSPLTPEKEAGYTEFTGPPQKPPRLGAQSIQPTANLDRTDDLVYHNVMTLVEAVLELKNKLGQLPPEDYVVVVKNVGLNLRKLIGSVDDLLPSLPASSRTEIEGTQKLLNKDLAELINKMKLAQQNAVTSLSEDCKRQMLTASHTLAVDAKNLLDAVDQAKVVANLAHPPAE

What was measured:
GFP-CD63 full length = molecular target: T1, GFP-CD63 full length (UniProt P41731); test: co-IP; HEK293T cells co-transfected with GFP-CD63 (full length or truncates) and Flag- or Myc-tagged NLRP3 or ASC constructs; lysed after 36 h, IP with 1 μg Flag, GFP or Myc antibody, immunoblot
T1 sequence: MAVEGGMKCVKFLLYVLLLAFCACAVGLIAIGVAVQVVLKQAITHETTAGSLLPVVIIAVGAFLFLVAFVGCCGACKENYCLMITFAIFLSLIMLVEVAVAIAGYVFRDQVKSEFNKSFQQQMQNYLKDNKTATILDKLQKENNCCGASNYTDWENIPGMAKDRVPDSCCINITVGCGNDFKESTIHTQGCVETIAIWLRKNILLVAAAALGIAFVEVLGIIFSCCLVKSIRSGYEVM

Myc-tagged ASC = molecular target: T2, Myc-tagged ASC (UniProt Q9EPB4); test: co-IP; competitive co-IP in HEK293T: a constant pair co-expressed with varying amounts of a third plasmid (GFP-CD63 against Myc-ASC/Flag-caspase-1, IP with Flag antibody; 1 and 5 μg Flag-NLRP3 or Myc-ASC against a constant 5 μg of the GFP-CD63 truncate)
T2 sequence: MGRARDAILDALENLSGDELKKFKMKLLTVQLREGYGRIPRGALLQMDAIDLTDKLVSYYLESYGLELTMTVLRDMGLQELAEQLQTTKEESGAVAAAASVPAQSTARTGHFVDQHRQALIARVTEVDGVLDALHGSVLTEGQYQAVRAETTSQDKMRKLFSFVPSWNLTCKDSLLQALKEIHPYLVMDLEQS

[1] = molecular target: T3, CD63 (endogenous, mouse BMMCs) (mouse (endogenous in BMMCs)) (UniProt P41731); test: cross-linking; NP-40 lysate pellets of BMMCs (WT, Nlrp3−/−, Asc−/−; untreated, IgE–Ag 5 min or LPS/nigericin 15 min; some pretreated with CAY-10736 or oridonin) cross-linked with 2 mM disuccinimidyl suberate 30 min at room temperature; immunoblot for NLRP3, ASC, CD63
T3 sequence: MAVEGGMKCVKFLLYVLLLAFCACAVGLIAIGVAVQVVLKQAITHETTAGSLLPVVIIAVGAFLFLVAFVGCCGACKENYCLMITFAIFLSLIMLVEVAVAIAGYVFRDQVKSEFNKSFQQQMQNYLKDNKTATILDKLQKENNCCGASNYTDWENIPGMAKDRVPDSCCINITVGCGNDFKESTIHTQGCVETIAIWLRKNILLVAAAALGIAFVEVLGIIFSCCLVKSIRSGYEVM

[2] = molecular target: NEK7 (endogenous, mouse BMMCs) (mouse (endogenous in BMMCs)) (UniProt Q9ES74); test: co-IP; endogenous proteins; IgE-sensitised WT (also Asc−/−) BMMCs untreated or stimulated with Ag (DNP-BSA 1 μg/ml) for 3-30 min; 1 mg pre-cleared lysate in IP lysis buffer, 1 μg antibody to CD63, NLRP3, ASC, NEK7 or Pyk2 overnight at 4 °C, G-plus agarose, immunoblot; some samples pretreated with BAPTA-AM, CAY-10736, oridonin or CY-09
[3] = molecular target: Pyk2 (endogenous, mouse BMMCs) (mouse (endogenous in BMMCs)) (UniProt Q9QVP9); test: as above
[4] = molecular target: NEK7 (endogenous, mouse BMMCs) (mouse (endogenous in BMMCs)), Q9ES74; test: as above; settings: remark: other sources report otherwise
[5] = molecular target: Pyk2 (endogenous, mouse BMMCs) (mouse (endogenous in BMMCs)), Q9QVP9; test: as above; settings: remark: other sources report otherwise
[6] = molecular target: T3, CD63 (endogenous, mouse BMMCs) (mouse (endogenous in BMMCs)); test: SEC; lysate of WT BMMCs stimulated with IgE–Ag for 5 min; Sephacryl 100 HR, 50 mM Tris-HCl pH 7.4, 150 mM NaCl, 1% octyl glucoside; fractions immunoblotted for NLRP3, ASC, caspase-1, CD63

B3: CD63 (endogenous, mouse BMMCs) (protein, UniProt P41731 1-238)
chain: MAVEGGMKCVKFLLYVLLLAFCACAVGLIAIGVAVQVVLKQAITHETTAGSLLPVVIIAVGAFLFLVAFVGCCGACKENYCLMITFAIFLSLIMLVEVAVAIAGYVFRDQVKSEFNKSFQQQMQNYLKDNKTATILDKLQKENNCCGASNYTDWENIPGMAKDRVPDSCCINITVGCGNDFKESTIHTQGCVETIAIWLRKNILLVAAAALGIAFVEVLGIIFSCCLVKSIRSGYEVM
binding [1]: binds
binding [2]: no binding
binding [3]: no binding

B4: ASC (endogenous, mouse BMMCs), Q9EPB4 1-193 (protein)
chain: MGRARDAILDALENLSGDELKKFKMKLLTVQLREGYGRIPRGALLQMDAIDLTDKLVSYYLESYGLELTMTVLRDMGLQELAEQLQTTKEESGAVAAAASVPAQSTARTGHFVDQHRQALIARVTEVDGVLDALHGSVLTEGQYQAVRAETTSQDKMRKLFSFVPSWNLTCKDSLLQALKEIHPYLVMDLEQS
binding [4]: no binding

B5: NLRP3 (endogenous, mouse BMMCs), Q8R4B8 1-1033 (protein)
chain: MTSVRCKLAQYLEDLEDVDLKKFKMHLEDYPPEKGCIPVPRGQMEKADHLDLATLMIDFNGEEKAWAMAVWIFAAINRRDLWEKAKKDQPEWNDTCTSHSSMVCQEDSLEEEWMGLLGYLSRISICKKKKDYCKMYRRHVRSRFYSIKDRNARLGESVDLNSRYTQLQLVKEHPSKQEREHELLTIGRTKMRDSPMSSLKLELLFEPEDGHSEPVHTVVFQGAAGIGKTILARKIMLDWALGKLFKDKFDYLFFIHCREVSLRTPRSLADLIVSCWPDPNPPVCKILRKPSRILFLMDGFDELQGAFDEHIGEVCTDWQKAVRGDILLSSLIRKKLLPKASLLITTRPVALEKLQHLLDHPRHVEILGFSEAKRKEYFFKYFSNELQAREAFRLIQENEVLFTMCFIPLVCWIVCTGLKQQMETGKSLAQTSKTTTAVYVFFLSSLLQSRGGIEEHLFSDYLQGLCSLAADGIWNQKILFEECDLRKHGLQKTDVSAFLRMNVFQKEVDCERFYSFSHMTFQEFFAAMYYLLEEEAEGETVRKGPGGCSDLLNRDVKVLLENYGKFEKGYLIFVVRFLFGLVNQERTSYLEKKLSCKISQQVRLELLKWIEVKAKAKKLQWQPSQLELFYCLYEMQEEDFVQSAMDHFPKIEINLSTRMDHVVSSFCIKNCHRVKTLSLGFFHNSPKEEEEERRGGRPLDQVQCVFPDTHVACSSRLVNCCLTSSFCRGLFSSLSTNRSLTELDLSDNTLGDPGMRVLCEALQHPGCNIQRLWLGRCGLSHQCCFDISSVLSSSQKLVELDLSDNALGDFGIRLLCVGLKHLLCNLQKLWLVSCCLTSACCQDLALVLSSNHSLTRLYIGENALGDSGVQVLCEKMKDPQCNLQKLGLVNSGLTSICCSALTSVLKTNQNFTHLYLRSNALGDTGLRLLCEGLLHPDCKLQMLELDNCSLTSHSCWNLSTILTHNHSLRKLNLGNNDLGDLCVVTLCEVLKQQGCLLQSLQLGEMYLNRETKRALEALQEEKPELTIVFEISW
binding [5]: no binding

The remaining lines, values ahead:

binding (GFP-CD63 full length): binds
B1: Flag–CARD (CARD domain of ASC) (domain or fragment, UniProt Q9EPB4 105-193)
chain: STARTGHFVDQHRQALIARVTEVDGVLDALHGSVLTEGQYQAVRAETTSQDKMRKLFSFVPSWNLTCKDSLLQALKEIHPYLVMDLEQS

binding (Myc-tagged ASC): binds
B2: GFP-CD63 full length (protein, UniProt P41731 1-238)
chain: MAVEGGMKCVKFLLYVLLLAFCACAVGLIAIGVAVQVVLKQAITHETTAGSLLPVVIIAVGAFLFLVAFVGCCGACKENYCLMITFAIFLSLIMLVEVAVAIAGYVFRDQVKSEFNKSFQQQMQNYLKDNKTATILDKLQKENNCCGASNYTDWENIPGMAKDRVPDSCCINITVGCGNDFKESTIHTQGCVETIAIWLRKNILLVAAAALGIAFVEVLGIIFSCCLVKSIRSGYEVM

binding [6]: no binding
B6: caspase-1 (endogenous, mouse BMMCs) (protein, UniProt P29452 1-402)
chain: MADKILRAKRKQFINSVSIGTINGLLDELLEKRVLNQEEMDKIKLANITAMDKARDLCDHVSKKGPQASQIFITYICNEDCYLAGILELQSAPSAETFVATEDSKGGHPSSSETKEEQNKEDGTFPGLTGTLKFCPLEKAQKLWKENPSEIYPIMNTTTRTRLALIICNTEFQHLSPRVGAQVDLREMKLLLEDLGYTVKVKENLTALEMVKEVKEFAACPEHKTSDSTFLVFMSHGIQEGICGTTYSNEVSDILKVDTIFQMMNTLKCPSLKDKPKVIIIQACRGEKQGVVLLKDSVRDSEEDFLTDAIFEDDGIKKAHIEKDFIAFCSSTPDNVSWRHPVRGSLFIESLIKHMKEYAWSCDLEDIFRKVRFSFEQPEFRLQMPTADRVTLTKRFYLFPGH
